{"source": "PubChem BioAssay AID686938 (Drosophila RNAi Screening Center, 2013)", "purpose": "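Looking for CRAC channel components and the factors controlling them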 (primary screen)", "system": "Drosophila S2R+ cells", "reagents": "long dsRNA against Drosophila genes, about 0.25 µg dsRNA per well, roughly 10,000 cells", "duration": "5 days of knock-down before the calcium assay", "challenge": "thapsigargin (SERCA pump blocker) to empty calcium stores; entry signal taken 4 min after adding it", "measurement": "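Duplicate raw fluo-4 intensities per well from a plate reader, at rest and four minutes after thapsigargin emptied calcium stores; entry-to-rest ratio filled for only some wells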", "scale": "calcium entry signal: higher = stronger calcium signal after store depletion; entry to resting ratio: higher = more calcium entry relative to resting level; resting calcium signal: higher = higher resting calcium signal", "units": "calcium entry signal in fluorescence units; resting calcium signal in fluorescence units", "call rule": "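Hit if the duplicate-averaged plate z-score for entry over resting signal is under −3; wells with weak total dye signal (Fmax z < −2) or more than 5 off-targets removed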", "calls": "active = strongly reduced calcium entry; inactive = no strong reduction", "note": "The deposit covers about 23,000 reagents; this is an unselected part of those that have a named target and a result. In the full data, 75 (0.33%) were called active. 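Raw plate signals without normalisation; calls rest on plate z-scores that were not deposited; ratio present for only 364 wells.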 Unmarked entries are inactive. Not given: the dose of the treatment."}
{"predicted target":"mmy","dsRNA":"DRSC02002","calcium entry signal, replicate 1":6.33e7,"resting calcium signal, replicate 1":3.25e7}
{"predicted target":"CG17068","dsRNA":"DRSC20545","calcium entry signal, replicate 1":2.81e7,"calcium entry signal, replicate 2":3.16e7,"resting calcium signal, replicate 1":1.34e7,"resting calcium signal, replicate 2":1.39e7}
{"predicted target":"lectin-24A","dsRNA":"DRSC00604","calcium entry signal, replicate 1":4.16e7,"calcium entry signal, replicate 2":3.81e7,"resting calcium signal, replicate 1":1.90e7,"resting calcium signal, replicate 2":1.70e7}
{"predicted target":"Vps53","dsRNA":"DRSC00595","calcium entry signal, replicate 1":4.44e7,"resting calcium signal, replicate 1":2.53e7}
{"predicted target":"Or65b","dsRNA":"DRSC08809","calcium entry signal, replicate 1":2.45e7,"calcium entry signal, replicate 2":4.13e7,"resting calcium signal, replicate 1":1.59e7,"resting calcium signal, replicate 2":1.86e7}
{"predicted target":"Gasz","dsRNA":"DRSC06829","calcium entry signal, replicate 1":4.86e7,"calcium entry signal, replicate 2":3.88e7,"resting calcium signal, replicate 1":1.99e7,"resting calcium signal, replicate 2":1.89e7}
{"predicted target":"CG13614","dsRNA":"DRSC14617","calcium entry signal, replicate 1":3.71e7,"calcium entry signal, replicate 2":5.61e7,"resting calcium signal, replicate 1":1.96e7,"resting calcium signal, replicate 2":2.25e7}
{"predicted target":"CG18449","dsRNA":"DRSC06754","calcium entry signal, replicate 1":3.45e7,"calcium entry signal, replicate 2":4.45e7,"resting calcium signal, replicate 1":1.60e7,"resting calcium signal, replicate 2":1.81e7}
{"predicted target":"Cyp9f3","dsRNA":"DRSC16636","calcium entry signal, replicate 1":3.18e7,"calcium entry signal, replicate 2":3.01e7,"resting calcium signal, replicate 1":1.57e7,"resting calcium signal, replicate 2":1.60e7}
{"predicted target":"sta","dsRNA":"DRSC18838","calcium entry signal, replicate 1":1.78e7,"calcium entry signal, replicate 2":2.05e7,"entry to resting ratio":1.6,"resting calcium signal, replicate 1":1.11e7,"resting calcium signal, replicate 2":1.10e7}
{"predicted target":"CG14421","dsRNA":"DRSC17918","calcium entry signal, replicate 1":3.79e7,"calcium entry signal, replicate 2":4.12e7,"entry to resting ratio":2.3,"resting calcium signal, replicate 1":1.65e7,"resting calcium signal, replicate 2":1.63e7}
{"predicted target":"Acsx2","dsRNA":"DRSC14308","calcium entry signal, replicate 1":4.25e7,"calcium entry signal, replicate 2":4.54e7,"resting calcium signal, replicate 1":6.29e7,"resting calcium signal, replicate 2":2.08e7}
{"predicted target":"CG31265","dsRNA":"DRSC15745","calcium entry signal, replicate 1":4.03e7,"calcium entry signal, replicate 2":4.48e7,"resting calcium signal, replicate 1":1.97e7,"resting calcium signal, replicate 2":5.62e7}
{"predicted target":"OSCP1","dsRNA":"DRSC06304","calcium entry signal, replicate 1":1.71e7,"calcium entry signal, replicate 2":3.33e7,"resting calcium signal, replicate 1":9.47e6,"resting calcium signal, replicate 2":1.38e7}
{"predicted target":"Prosalpha6T","dsRNA":"DRSC02873","calcium entry signal, replicate 1":4.48e7,"calcium entry signal, replicate 2":3.34e7,"resting calcium signal, replicate 1":2.01e7,"resting calcium signal, replicate 2":1.62e7}
{"predicted target":"CG10470","dsRNA":"DRSC02061","calcium entry signal, replicate 1":4.74e7,"calcium entry signal, replicate 2":4.74e7,"resting calcium signal, replicate 1":2.31e7,"resting calcium signal, replicate 2":2.14e7}
{"predicted target":"PIG-T","dsRNA":"DRSC17774","calcium entry signal, replicate 1":3.19e7,"calcium entry signal, replicate 2":4.04e7,"resting calcium signal, replicate 1":1.65e7,"resting calcium signal, replicate 2":1.89e7}
{"predicted target":"CG16995","dsRNA":"DRSC00480","calcium entry signal, replicate 1":4.41e7,"calcium entry signal, replicate 2":4.86e7,"resting calcium signal, replicate 1":1.99e7,"resting calcium signal, replicate 2":2.18e7}
{"predicted target":"rl","dsRNA":"DRSC07833","calcium entry signal, replicate 1":2.96e7,"calcium entry signal, replicate 2":4.37e7,"resting calcium signal, replicate 1":1.54e7,"resting calcium signal, replicate 2":2.07e7}
{"predicted target":"rl","dsRNA":"DRSC20742","calcium entry signal, replicate 1":3.47e7,"calcium entry signal, replicate 2":3.68e7,"resting calcium signal, replicate 1":2.18e7,"resting calcium signal, replicate 2":1.82e7}
{"predicted target":"rl","dsRNA":"DRSC21814","calcium entry signal, replicate 1":3.67e7,"calcium entry signal, replicate 2":3.31e7,"resting calcium signal, replicate 1":2.00e7,"resting calcium signal, replicate 2":1.66e7}

Reprinted from the entries so far (3 entries):
{"predicted target":"CG18449","dsRNA":"DRSC06754","calcium entry signal, replicate 1":3.45e7,"calcium entry signal, replicate 2":4.45e7,"resting calcium signal, replicate 1":1.60e7,"resting calcium signal, replicate 2":1.81e7}
{"predicted target":"Cyp9f3","dsRNA":"DRSC16636","calcium entry signal, replicate 1":3.18e7,"calcium entry signal, replicate 2":3.01e7,"resting calcium signal, replicate 1":1.57e7,"resting calcium signal, replicate 2":1.60e7}
{"predicted target":"sta","dsRNA":"DRSC18838","calcium entry signal, replicate 1":1.78e7,"calcium entry signal, replicate 2":2.05e7,"entry to resting ratio":1.6,"resting calcium signal, replicate 1":1.11e7,"resting calcium signal, replicate 2":1.10e7}
